Assay results taken from PubChem BioAssay AID1671190 (National Center for Advancing Translational Sciences (NCATS), 2021).
In all, about 580,000 compounds went through this assay and about 6,100 (1.1%) were called active. This list was built around the results that the source calls inconclusive (neither active nor inactive); the mix of calls is not that of the screen. Calls come from the whole dose curve; as a rule, active = well fitted inhibition curve with a large enough effect; inconclusive = small, poorly fitted or top-dose-only effect, or another doubt; inactive = no such curve, though single readings can be large or run the other way. A potency beside an inconclusive call is a rough fit, not a confirmed value.

Protein sequences, listed by entry. Tags and fused reporters are not part of them. Lines headed by an entry give the natural chain unless they say otherwise; changes in a name come on top.
UniProt P18054: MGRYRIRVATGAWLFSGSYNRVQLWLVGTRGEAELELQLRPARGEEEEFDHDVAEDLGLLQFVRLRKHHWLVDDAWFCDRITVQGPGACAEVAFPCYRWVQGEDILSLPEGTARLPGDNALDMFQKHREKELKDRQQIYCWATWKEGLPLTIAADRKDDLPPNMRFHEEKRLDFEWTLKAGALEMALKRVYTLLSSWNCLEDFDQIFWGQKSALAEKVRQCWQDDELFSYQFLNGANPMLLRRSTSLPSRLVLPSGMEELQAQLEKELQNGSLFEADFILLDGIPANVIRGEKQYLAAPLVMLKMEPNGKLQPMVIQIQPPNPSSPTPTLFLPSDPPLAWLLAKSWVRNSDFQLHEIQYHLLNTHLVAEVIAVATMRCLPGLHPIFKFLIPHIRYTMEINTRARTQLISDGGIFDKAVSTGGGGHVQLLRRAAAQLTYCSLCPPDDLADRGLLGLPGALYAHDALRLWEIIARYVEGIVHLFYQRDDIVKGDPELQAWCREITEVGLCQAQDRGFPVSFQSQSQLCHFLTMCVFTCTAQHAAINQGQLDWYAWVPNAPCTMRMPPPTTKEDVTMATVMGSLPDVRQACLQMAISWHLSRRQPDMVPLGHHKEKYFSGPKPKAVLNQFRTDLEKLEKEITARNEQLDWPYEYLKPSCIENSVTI

molecular target: Polyunsaturated fatty acid lipoxygenase ALOX12 (Homo sapiens) (UniProt P18054); assay: Primary qHTS assay for inhibitors of human arachidonate 12S-lipoxygenase (ALOX12): Round 2; settings: purified 12hLO, xylenol orange hydroperoxide absorbance; activity change, negative = inhibition: at 108 µM (top of the series) unless noted
How it was run: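 Purified human 12hLO (150 nM final) in 25 mM Hepes, 0.01% Triton X-100, pH 7.0 was preincubated 15 min at room temperature with compound. Then 40 uM arachidonic acid was added, 30 min. Hydroperoxide was read by Fe-XO absorbance ratio 573/405 nm.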
% is set by controls: 0 for no effect and ±100 for the full control effect; potency is the fitted concentration of half-maximal effect.

Row | Compound | Potency | activity change, negative = inhibition
1 | C[C@@H](NC(=O)c1[nH]cnc1C(=O)Nc1ccccc1F)c1ccccc1 | inconclusive: 112 µM [inhibitor, single point] | –
2 | COc1ccccc1NS(=O)(=O)c1ccc(C(=O)OCC(=O)NCc2ccco2)cc1 | inconclusive: 17.8 µM [inhibitor, full curve] | –
3 | CCCCNC(=O)CC(c1cccc([N+](=O)[O-])c1)c1c[nH]c2c(CC)cccc12 (stereo not given) | inconclusive: 31.6 µM [inhibitor, single point] | –
4 | COc1ccc(OC)c(CNC(=O)CN(C(=O)C2=C(C)OCCS2)c2ccc(Cl)cc2)c1 | inconclusive: 31.6 µM [inhibitor, single point] | –
5 | COc1ccc(-c2ccc3c(N)c(C(=O)NCc4ccc(Cl)cc4)sc3n2)cc1 | inconclusive: 112 µM [inhibitor, single point] | –
6 | CC(C)(C)c1ccc(CC(=O)N2CCC2(C)C(=O)Nc2ccc3[nH]ncc3c2)cc1 (stereo not given) | inconclusive: 112 µM [inhibitor, single point] | –
7 | COCCn1cnnc1SC(C)C(=O)c1ccc(F)cc1 (stereo not given) | inconclusive: 2.82 µM [inhibitor, full curve, poor fit] | –
8 | Cc1cc(C(=O)N2C[C@@H](CO)[C@H](c3nc(C4CC4)no3)C2)c(C)o1 | inactive | –
9 | COc1ccc2cnnc(SCC(=O)Nc3ccc(C(=O)O)cc3)c2c1OC | inconclusive: 56.2 µM [inhibitor, partial curve, poor fit] | –
10 | C1=NN(c2ccccc2)C=NN1c1ccccc1 | inconclusive: 11.2 µM [inhibitor, full curve] | –
11 | O=[N+]([O-])c1ccc(N/N=C/c2ccccc2O)cc1 | inactive | –
12 | COc1ccc(C(=O)NCc2nc(-c3cccs3)no2)cc1 | inconclusive: 14.1 µM [inhibitor, full curve, poor fit] | –
13 | CN1CCN(S(=O)(=O)c2ccc(C3CCCCC3)cc2)CC1 | inconclusive: 63.1 µM [inhibitor, partial curve, poor fit] | –
14 | CNc1snc(C)c1C(=O)OCC(=O)Nc1ccc(C)cc1F | inactive | –
15 | CN(C)c1ccc(C(=O)/C=C/c2ccccc2)cc1 | inactive | –
16 | CCOc1ccc2c(c1)cc(C(=O)NCc1ccc(C)cc1)n2C | inactive | –
17 | Cc1occc(=O)c1OCc1noc(C(=O)NCc2cccc(Cl)c2)n1 | inconclusive: 4.47 µM [inhibitor, single point] | –
18 | O=C1NC(=S)SC1=Cc1ccc(Cl)cc1 | active: 22.4 µM | –
19 | NC(=O)c1ccc(CC2CCN(S(=O)(=O)c3ccc4c(c3)CCC4)CC2)cc1 | inconclusive: 10 µM [inhibitor, full curve, poor fit] | –
20 | CN(Cc1cccc(F)c1)C(=O)CCCc1c[nH]c2ccccc12 | inconclusive: 89.1 µM [inhibitor, single point] | –
21 | Cc1nn(S(=O)(=O)c2ccc(Br)cc2)c(C)c1S(=O)(=O)N1CCOCC1 | inconclusive: 22.4 µM [inhibitor, partial curve, poor fit] | –
22 | O=C(NCc1ccco1)c1cc2c(s1)CCCCC2 | inconclusive: 44.7 µM [inhibitor, partial curve, poor fit] | –
23 | COc1cc(C(=S)N2CCOCC2)cc(OC)c1OS(=O)(=O)c1ccc(C)cc1 | inactive | –

Row | Compound | Potency | activity change, negative = inhibition
24 | CCc1ccc(C(=O)Nc2ccc(OC)c(S(=O)(=O)N3CCCCC3)c2)cc1 | inconclusive: 89.1 µM [inhibitor, single point] | –
25 | Cn1c(=O)c(-c2cccs2)nc2cnc(OCc3ccccc3)nc21 | inconclusive: 35.5 µM [inhibitor, partial curve, poor fit] | –
26 | CC1CCCN(c2ccc(/C=C(\C#N)c3nn(-c4ccccc4)c(N)c3C#N)cc2[N+](=O)[O-])C1 (stereo not given) | inactive | –
27 | Cc1c(Cl)cccc1NC(=O)CCNC(=O)CCC(=O)c1cccs1 | – | inconclusive: -33.1% [inhibitor]
28 | Cc1ccsc1CN(C)C(=O)Cc1n[nH]c(=O)c2ccccc12 | inconclusive: 89.1 µM [inhibitor, single point] | –
29 | Cc1ccc(NC(=O)C2C(=O)N(CCO)C3(C)CC2c2ccccc2O3)cc1 (stereo not given) | inactive | –
30 | CCCCN1C(=O)CN(C2CCCCCC2)C(=O)C1c1ccc(OCCC)c(OC)c1 (stereo not given) | – | inconclusive: -36.8% [inhibitor]
31 | Cc1cc(C)c2nc(SCC(=O)N(C)CCC#N)cc(C)c2c1 | inactive | –
32 | FC(F)(F)c1ccccc1NC(=S)N1CCN(c2ccccn2)CC1 | inactive | –
33 | COc1ccccc1CNC(=O)CS(=O)Cc1nc(-c2cccc(C)c2)oc1C (stereo not given) | inactive | –
34 | COCCNc1ncnc2c1CN(c1ccccc1F)C(=O)CN2C | inactive | –
35 | CC1Cc2cc(S(=O)(=O)N3CCC(C(=O)Nc4ccccn4)CC3)ccc2N1C(=O)C1CCC1 (stereo not given) | inactive | –
36 | N#Cc1ccc(-c2nc(C3CC(=O)N(c4ccc(Cl)cc4)C3)no2)cc1 (stereo not given) | active: 12.6 µM | –
37 | CC(C)(C)c1ccc(-c2nc(C#N)c(NCCN3CCOCC3)o2)cc1 | inconclusive: 141 µM [inhibitor, single point] | –
38 | CC1CN(S(=O)(=O)c2cc(C(=O)N(CCc3ccccc3)Cc3ccccc3)ccc2Cl)CC(C)O1 (stereo not given) | inactive | –
39 | OCCCn1c(C2CCCN2c2nc(-c3ccc(F)cc3)cs2)nc2cc(Cl)c(Cl)cc21 (stereo not given) | inactive | –
40 | CCOc1ccc(/C=C2/SC(=S)N(CCC(=O)Nc3ccc(C(=O)O)cc3)C2=O)cc1 | inactive | –
41 | N#Cc1ccccc1Sc1ccccc1C(=O)OCC(=O)Nc1ccc(N2CCOCC2)cc1 | inconclusive: 112 µM [inhibitor, single point] | –
42 | CC(C)c1ccc(-c2nc(C3CC(=O)N(c4ccc(Cl)cc4)C3)no2)cc1 (stereo not given) | inconclusive: 7.94 µM [inhibitor, full curve] | –
43 | COc1ccc2[nH]c(C)c(CCNS(=O)(=O)c3cc(F)ccc3OC)c2c1 | inconclusive: 28.2 µM [inhibitor, partial curve, poor fit] | –
44 | CN(C)c1ccc(C(CNC(=O)c2ccc(C(C)(C)C)cc2)N2CCOCC2)cc1 (stereo not given) | inconclusive: 44.7 µM [inhibitor, partial curve, poor fit] | –
45 | Cc1ccc(C(=O)NCCN(C)C)cc1C | inactive | –

Entries of single compounds as entered above:
`O=[N+]([O-])c1ccc(N/N=C/c2ccccc2O)cc1` in the list: Potency: inactive
`FC(F)(F)c1ccccc1NC(=S)N1CCN(c2ccccn2)CC1` in the list: Potency: inactive
